No constants are given. Whether binding was seen depends on the method and setting. Binding seen in cells or lysates may run through a third protein. Some entries that bind do so weakly or less than the wild type.
Key:
[1] = molecular target: DOCK11-BioFLAGHis (full-length dedicator of cytokinesis 11) (UniProt Q5JSL3); assay: co-IP; DOCK11-BioFLAGHis and T7-Ack1-His coexpressed in HEK293T cells for 48 h, cells treated or not with 10M-D42AN for 24 h; lysate on streptavidin-conjugated magnetic beads 3 h at 4 °C; washed with TBST; blot with anti-FLAG or anti-Ack1 antibody
[2] = molecular target: DOCK11-BioFLAGHis (full-length dedicator of cytokinesis 11) (UniProt Q5JSL3); assay: pull-down; purified DOCK11-BioFLAGHis immobilised on streptavidin-conjugated magnetic beads in TBST; lysate containing T7-Ack1-His mixed 3 h at 4 °C, with or without DCS8-42A; blot with anti-FLAG or anti-Ack1 antibody; only the target purified

Amino acid sequences for entries named in this document (tags omitted).
UniProt Q5JSL3: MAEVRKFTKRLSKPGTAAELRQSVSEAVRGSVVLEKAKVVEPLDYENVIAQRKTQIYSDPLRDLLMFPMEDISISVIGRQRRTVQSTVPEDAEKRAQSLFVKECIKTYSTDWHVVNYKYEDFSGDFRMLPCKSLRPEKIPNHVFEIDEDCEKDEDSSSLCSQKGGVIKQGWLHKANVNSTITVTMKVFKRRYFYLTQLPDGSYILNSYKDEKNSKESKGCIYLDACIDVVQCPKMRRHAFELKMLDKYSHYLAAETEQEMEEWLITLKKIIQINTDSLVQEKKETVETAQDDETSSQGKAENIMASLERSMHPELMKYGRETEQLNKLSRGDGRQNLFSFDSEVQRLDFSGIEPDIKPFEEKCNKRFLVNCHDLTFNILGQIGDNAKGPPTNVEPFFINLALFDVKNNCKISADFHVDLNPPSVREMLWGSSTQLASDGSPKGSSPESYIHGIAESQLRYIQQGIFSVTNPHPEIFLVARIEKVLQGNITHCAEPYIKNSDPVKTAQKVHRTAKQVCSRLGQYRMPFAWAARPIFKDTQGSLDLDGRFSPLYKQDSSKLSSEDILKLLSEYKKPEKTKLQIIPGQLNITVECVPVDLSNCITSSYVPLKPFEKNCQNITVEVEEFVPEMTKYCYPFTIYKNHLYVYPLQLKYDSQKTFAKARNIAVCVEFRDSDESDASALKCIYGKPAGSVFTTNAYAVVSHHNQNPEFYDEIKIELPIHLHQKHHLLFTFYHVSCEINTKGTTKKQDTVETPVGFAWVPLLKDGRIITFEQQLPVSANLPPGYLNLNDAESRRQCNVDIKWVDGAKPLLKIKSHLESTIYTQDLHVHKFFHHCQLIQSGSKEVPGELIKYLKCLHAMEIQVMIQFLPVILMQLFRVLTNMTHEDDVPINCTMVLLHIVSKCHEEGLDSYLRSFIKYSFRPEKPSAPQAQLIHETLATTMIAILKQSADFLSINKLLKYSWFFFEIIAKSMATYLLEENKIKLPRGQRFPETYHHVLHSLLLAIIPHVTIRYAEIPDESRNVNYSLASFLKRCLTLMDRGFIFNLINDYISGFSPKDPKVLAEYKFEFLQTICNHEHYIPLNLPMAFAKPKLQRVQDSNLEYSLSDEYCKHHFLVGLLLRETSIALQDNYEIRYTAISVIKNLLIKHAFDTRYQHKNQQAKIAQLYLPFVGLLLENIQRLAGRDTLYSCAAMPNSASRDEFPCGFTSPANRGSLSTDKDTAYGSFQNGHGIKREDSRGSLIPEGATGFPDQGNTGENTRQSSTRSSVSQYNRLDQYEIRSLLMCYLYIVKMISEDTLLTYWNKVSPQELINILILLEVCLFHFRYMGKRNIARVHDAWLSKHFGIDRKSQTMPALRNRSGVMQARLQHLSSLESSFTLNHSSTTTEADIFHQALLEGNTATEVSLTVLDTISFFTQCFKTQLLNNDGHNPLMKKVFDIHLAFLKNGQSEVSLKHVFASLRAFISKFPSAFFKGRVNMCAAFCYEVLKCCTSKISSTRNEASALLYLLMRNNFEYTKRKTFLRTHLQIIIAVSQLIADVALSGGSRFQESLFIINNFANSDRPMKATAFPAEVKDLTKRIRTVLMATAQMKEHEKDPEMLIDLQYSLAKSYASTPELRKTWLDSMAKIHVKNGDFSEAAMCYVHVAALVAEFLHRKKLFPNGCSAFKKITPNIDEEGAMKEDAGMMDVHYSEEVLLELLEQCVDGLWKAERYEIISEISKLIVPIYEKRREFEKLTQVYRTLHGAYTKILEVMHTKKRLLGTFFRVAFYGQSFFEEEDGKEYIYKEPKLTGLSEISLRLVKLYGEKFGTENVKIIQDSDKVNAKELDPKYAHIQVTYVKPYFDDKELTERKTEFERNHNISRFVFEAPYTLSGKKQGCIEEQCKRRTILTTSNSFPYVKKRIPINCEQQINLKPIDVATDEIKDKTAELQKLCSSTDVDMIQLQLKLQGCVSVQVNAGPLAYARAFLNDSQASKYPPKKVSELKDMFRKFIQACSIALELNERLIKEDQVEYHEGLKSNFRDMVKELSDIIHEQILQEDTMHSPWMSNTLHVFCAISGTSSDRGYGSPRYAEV
UniProt Q07912: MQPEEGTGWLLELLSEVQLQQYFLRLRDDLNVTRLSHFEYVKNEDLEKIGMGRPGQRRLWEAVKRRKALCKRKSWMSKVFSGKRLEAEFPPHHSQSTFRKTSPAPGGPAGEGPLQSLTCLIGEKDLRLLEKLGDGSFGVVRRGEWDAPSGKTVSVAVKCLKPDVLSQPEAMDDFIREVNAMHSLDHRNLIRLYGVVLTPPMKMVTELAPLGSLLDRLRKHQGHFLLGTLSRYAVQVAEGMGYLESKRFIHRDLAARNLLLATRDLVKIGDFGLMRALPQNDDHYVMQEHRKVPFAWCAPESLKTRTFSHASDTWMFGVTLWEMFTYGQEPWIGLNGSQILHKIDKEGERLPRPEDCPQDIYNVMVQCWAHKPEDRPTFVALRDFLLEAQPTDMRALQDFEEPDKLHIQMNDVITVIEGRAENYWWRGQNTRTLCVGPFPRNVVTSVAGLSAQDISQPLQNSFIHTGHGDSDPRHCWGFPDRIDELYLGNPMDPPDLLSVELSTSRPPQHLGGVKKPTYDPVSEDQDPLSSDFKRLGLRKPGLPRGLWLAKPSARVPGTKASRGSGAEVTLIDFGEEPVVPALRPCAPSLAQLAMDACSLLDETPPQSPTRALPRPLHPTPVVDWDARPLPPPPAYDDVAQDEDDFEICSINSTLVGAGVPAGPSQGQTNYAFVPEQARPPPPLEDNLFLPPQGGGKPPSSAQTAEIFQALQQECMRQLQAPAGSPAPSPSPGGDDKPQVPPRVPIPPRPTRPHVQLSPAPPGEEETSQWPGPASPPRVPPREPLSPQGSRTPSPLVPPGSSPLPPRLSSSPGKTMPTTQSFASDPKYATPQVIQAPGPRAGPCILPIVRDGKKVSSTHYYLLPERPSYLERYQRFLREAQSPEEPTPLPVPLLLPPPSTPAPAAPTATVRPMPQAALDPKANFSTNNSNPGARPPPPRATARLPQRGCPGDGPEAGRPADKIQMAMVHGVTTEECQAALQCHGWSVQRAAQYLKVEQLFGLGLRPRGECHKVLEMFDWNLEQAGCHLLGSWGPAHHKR

binding [1]: binds
binding [2]: binds
Substance: T7-Ack1-His (activated cdc42-associated kinase 1) (from UniProt Q07912 1-1038)

From paper PMC9241042
